{"source": "the supplement of paper PMC5662767", "tested_on": "Drosophila S2 cl14 SmoIP sensor cells", "experiment": "normalized SmoIP GFP fluorescence (untreated unstimulated = 0%, untreated Hh-stimulated = 100%); higher = more Smo activation sensor fluorescence", "details": "compound concentration: 15 uM, 24 h", "key": {"[1]": {"details": "stimulation: Hh conditioned medium (+Hh)"}, "[2]": {"details": "stimulation: mock conditioned medium (-Hh)"}}, "note": "This is one part of the list. Part of the spread comes from offsets between plates or batches.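 A clonal Drosophila S2 line expresses Smoothened bearing circularly permuted GFP in its cytoplasmic tail; Hh-driven phosphorylation opens an inhibitory loop, making it fluoresce. Flow cytometry measured per-cell fluorescence, normalized to Hh-stimulated untreated cells. Hits were inhibitor groups with shared pathway targets that consistently shifted fluorescence, not individual compounds.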"}
{"compound": "Cn1c(=O)cc(N2CCC[C@@H](N)C2)n(Cc2cc(F)ccc2C#N)c1=O", "note": "[trelagliptin]", "values": [{"measurement": "normalized SmoIP GFP fluorescence", "setting": "[1]", "result": 113, "unit": "%"}, {"measurement": "normalized SmoIP GFP fluorescence", "setting": "[2]", "result": 46.4, "unit": "%"}]}
{"compound": "Cc1ccccc1C(C(=O)NC1CCCCC1)N(C(=O)Cn1ccnc1C)c1cccc(F)c1", "note": "(stereo not given)", "values": [{"measurement": "normalized SmoIP GFP fluorescence", "setting": "[1]", "result": 135, "unit": "%"}, {"measurement": "normalized SmoIP GFP fluorescence", "setting": "[2]", "result": 12.5, "unit": "%"}]}
{"compound": "CC(=O)Nc1nc2c(Oc3cc(-c4ccc(C(F)(F)F)cc4)ncn3)cccc2s1", "values": [{"measurement": "normalized SmoIP GFP fluorescence", "setting": "[1]", "result": 131, "unit": "%"}, {"measurement": "normalized SmoIP GFP fluorescence", "setting": "[2]", "result": 9.79, "unit": "%"}]}
{"compound": "CC(C)C[C@H](NC(=O)[C@H](Cc1ccccc1)NC(=O)c1cnccn1)B(O)O", "note": "[Bortezomib]", "values": [{"measurement": "normalized SmoIP GFP fluorescence", "setting": "[1]", "result": 88.5, "unit": "%"}, {"measurement": "normalized SmoIP GFP fluorescence", "setting": "[2]", "result": 71.8, "unit": "%"}]}
{"compound": "CCC1=C(C)CN(C(=O)NCCc2ccc(S(=O)(=O)NC(=O)N[C@H]3CC[C@H](C)CC3)cc2)C1=O", "note": "[Glimepiride]", "values": [{"measurement": "normalized SmoIP GFP fluorescence", "setting": "[1]", "result": 140, "unit": "%"}, {"measurement": "normalized SmoIP GFP fluorescence", "setting": "[2]", "result": 12.4, "unit": "%"}]}
{"compound": "Cc1ccc(NC(=O)C2(c3ccc4c(c3)OC(F)(F)O4)CC2)nc1-c1cccc(C(=O)O)c1", "values": [{"measurement": "normalized SmoIP GFP fluorescence", "setting": "[1]", "result": 102, "unit": "%"}, {"measurement": "normalized SmoIP GFP fluorescence", "setting": "[2]", "result": 8.46, "unit": "%"}]}
{"compound": "C[C@H]1[C@H](C)CC[C@]2(C(=O)O)CC[C@]3(C)C(=CC[C@@H]4[C@@]5(C)C[C@@H](O)[C@H](O)[C@@](C)(CO)[C@@H]5CC[C@]43C)[C@H]12", "note": "[Asiatic-acid]", "values": [{"measurement": "normalized SmoIP GFP fluorescence", "setting": "[1]", "result": 137, "unit": "%"}, {"measurement": "normalized SmoIP GFP fluorescence", "setting": "[2]", "result": -2.19, "unit": "%"}]}
{"compound": "COC(=O)[C@H](c1ccccc1Cl)N1CCc2sccc2C1", "note": "[Clopidogrel-bisulfate]", "values": [{"measurement": "normalized SmoIP GFP fluorescence", "setting": "[1]", "result": 168, "unit": "%"}, {"measurement": "normalized SmoIP GFP fluorescence", "setting": "[2]", "result": 25.9, "unit": "%"}]}
{"compound": "CCCc1cc(C)[nH]c(=O)c1CNC(=O)c1cc(-c2ccc(N3CCN(C(C)C)CC3)nc2)cc2c1cnn2C(C)C", "values": [{"measurement": "normalized SmoIP GFP fluorescence", "setting": "[1]", "result": 193, "unit": "%"}, {"measurement": "normalized SmoIP GFP fluorescence", "setting": "[2]", "result": 74.7, "unit": "%"}]}
{"compound": "OCCOCCN1CCN(C2=Nc3ccccc3Sc3ccccc32)CC1", "note": "[Quetiapine-fumarate(Seroquel)]", "values": [{"measurement": "normalized SmoIP GFP fluorescence", "setting": "[1]", "result": 122, "unit": "%"}, {"measurement": "normalized SmoIP GFP fluorescence", "setting": "[2]", "result": 0.785, "unit": "%"}]}
{"compound": "NC(=S)N/N=C/c1ncccc1N", "note": "[triapine]", "values": [{"measurement": "normalized SmoIP GFP fluorescence", "setting": "[1]", "result": 146, "unit": "%"}, {"measurement": "normalized SmoIP GFP fluorescence", "setting": "[2]", "result": 4.04, "unit": "%"}]}
{"compound": "CC(C(=O)O)c1ccc2c(c1)CC(=O)c1ccccc1S2", "note": "(stereo not given) [zaltoprofen]", "values": [{"measurement": "normalized SmoIP GFP fluorescence", "setting": "[1]", "result": 123, "unit": "%"}, {"measurement": "normalized SmoIP GFP fluorescence", "setting": "[2]", "result": 1.44, "unit": "%"}]}
{"compound": "COc1ccc2c(Oc3ccc(NC(=O)c4c(C)n(CC(C)(C)O)n(-c5ccccc5)c4=O)nc3)ccnc2c1", "values": [{"measurement": "normalized SmoIP GFP fluorescence", "setting": "[1]", "result": 180, "unit": "%"}, {"measurement": "normalized SmoIP GFP fluorescence", "setting": "[2]", "result": 20.3, "unit": "%"}]}
{"compound": "CC(=O)[C@H]1CC[C@H]2[C@@H]3CC=C4C[C@@H](O)CC[C@]4(C)[C@H]3CC[C@]12C", "note": "[pregnenolone]", "values": [{"measurement": "normalized SmoIP GFP fluorescence", "setting": "[1]", "result": 157, "unit": "%"}, {"measurement": "normalized SmoIP GFP fluorescence", "setting": "[2]", "result": -11.7, "unit": "%"}]}
{"compound": "CCN(c1cc(-c2ccc(CN3CCOCC3)cc2)cc(C(=O)NCc2c(C)cc(C)[nH]c2=O)c1C)C1CCOCC1", "values": [{"measurement": "normalized SmoIP GFP fluorescence", "setting": "[1]", "result": 137, "unit": "%"}, {"measurement": "normalized SmoIP GFP fluorescence", "setting": "[2]", "result": 12.7, "unit": "%"}]}
{"compound": "Cc1ccc(C(=O)Cn2c3c(sc2=N)CCCC3)cc1", "note": "[pifithrin-alpha]", "values": [{"measurement": "normalized SmoIP GFP fluorescence", "setting": "[1]", "result": 121, "unit": "%"}, {"measurement": "normalized SmoIP GFP fluorescence", "setting": "[2]", "result": 2.75, "unit": "%"}]}
{"compound": "CC(=O)N1CCN(c2ccc(OCC3COC(Cn4ccnc4)(c4ccc(Cl)cc4Cl)O3)cc2)CC1", "note": "(stereo not given) [Ketoconazole]", "values": [{"measurement": "normalized SmoIP GFP fluorescence", "setting": "[1]", "result": 196, "unit": "%"}, {"measurement": "normalized SmoIP GFP fluorescence", "setting": "[2]", "result": 79.7, "unit": "%"}]}
{"compound": "Cc1c(C(=O)NN2CCCCC2)nn(-c2ccc(Cl)cc2Cl)c1-c1ccc(Cl)cc1", "values": [{"measurement": "normalized SmoIP GFP fluorescence", "setting": "[1]", "result": 129, "unit": "%"}, {"measurement": "normalized SmoIP GFP fluorescence", "setting": "[2]", "result": 41.7, "unit": "%"}]}
{"compound": "c1ccc(-c2[nH]ncc2-c2ccnc3ccccc23)nc1", "values": [{"measurement": "normalized SmoIP GFP fluorescence", "setting": "[1]", "result": 129, "unit": "%"}, {"measurement": "normalized SmoIP GFP fluorescence", "setting": "[2]", "result": 20.9, "unit": "%"}]}
{"compound": "Cc1cc(N2CCOCC2)ccc1Nc1nc(NC2CCCCC2)c2[nH]cnc2n1", "values": [{"measurement": "normalized SmoIP GFP fluorescence", "setting": "[1]", "result": 151, "unit": "%"}, {"measurement": "normalized SmoIP GFP fluorescence", "setting": "[2]", "result": 11.6, "unit": "%"}]}
{"compound": "C=CCn1c(=O)c2cnc(Nc3ccc(N4CCN(C)CC4)cc3)nc2n1-c1cccc(C(C)(C)O)n1", "values": [{"measurement": "normalized SmoIP GFP fluorescence", "setting": "[1]", "result": 125, "unit": "%"}, {"measurement": "normalized SmoIP GFP fluorescence", "setting": "[2]", "result": 11.3, "unit": "%"}]}
{"compound": "O=C(Nc1ccccc1Br)N[C@@H]1CCN(c2ccc(C(F)(F)F)cn2)C1", "values": [{"measurement": "normalized SmoIP GFP fluorescence", "setting": "[1]", "result": 105, "unit": "%"}, {"measurement": "normalized SmoIP GFP fluorescence", "setting": "[2]", "result": -5.53, "unit": "%"}]}
{"compound": "N#Cc1c(O)c2c(-c3ccc(-c4ccccc4O)cc3)csc2[nH]c1=O", "values": [{"measurement": "normalized SmoIP GFP fluorescence", "setting": "[1]", "result": 162, "unit": "%"}, {"measurement": "normalized SmoIP GFP fluorescence", "setting": "[2]", "result": -8.59, "unit": "%"}]}
{"compound": "Nc1cccc2c1CN(C1CCC(=O)NC1=O)C2=O", "note": "(stereo not given) [Lenalidomide]", "values": [{"measurement": "normalized SmoIP GFP fluorescence", "setting": "[1]", "result": 147, "unit": "%"}, {"measurement": "normalized SmoIP GFP fluorescence", "setting": "[2]", "result": 9.86, "unit": "%"}]}
{"compound": "CCCC(CCC)C(=O)O", "note": "[Divalproex-sodium]", "values": [{"measurement": "normalized SmoIP GFP fluorescence", "setting": "[1]", "result": 131, "unit": "%"}, {"measurement": "normalized SmoIP GFP fluorescence", "setting": "[2]", "result": -18.7, "unit": "%"}]}
{"compound": "Nc1cc(F)ccc1NC(=O)/C=C/c1cnn(C/C=C/c2ccccc2)c1", "note": "[rgfp966]", "values": [{"measurement": "normalized SmoIP GFP fluorescence", "setting": "[1]", "result": 183, "unit": "%"}, {"measurement": "normalized SmoIP GFP fluorescence", "setting": "[2]", "result": 48.6, "unit": "%"}]}
{"compound": "O=C(O)Cn1nnc(-c2cc(N3CCC(Oc4cc(F)ccc4Br)CC3)no2)n1", "values": [{"measurement": "normalized SmoIP GFP fluorescence", "setting": "[1]", "result": 139, "unit": "%"}, {"measurement": "normalized SmoIP GFP fluorescence", "setting": "[2]", "result": 0.274, "unit": "%"}]}
{"compound": "C=CC(=O)Nc1ccc2ncnc(Nc3cccc(Br)c3)c2c1", "values": [{"measurement": "normalized SmoIP GFP fluorescence", "setting": "[1]", "result": 194, "unit": "%"}, {"measurement": "normalized SmoIP GFP fluorescence", "setting": "[2]", "result": 46.9, "unit": "%"}]}
{"compound": "Cc1ccc(S(=O)(=O)NC(=O)NN2CC3CCCC3C2)cc1", "note": "(stereo not given) [gliclazide-diamicron]", "values": [{"measurement": "normalized SmoIP GFP fluorescence", "setting": "[1]", "result": 115, "unit": "%"}, {"measurement": "normalized SmoIP GFP fluorescence", "setting": "[2]", "result": -11.6, "unit": "%"}]}
{"compound": "COc1ccc2[nH]c([S+]([O-])Cc3ncc(C)c(OC)c3C)nc2c1", "note": "(stereo not given) [Omeprazole]", "values": [{"measurement": "normalized SmoIP GFP fluorescence", "setting": "[1]", "result": 134, "unit": "%"}, {"measurement": "normalized SmoIP GFP fluorescence", "setting": "[2]", "result": 0.812, "unit": "%"}]}
{"compound": "CCc1c2c(nc3ccc(O)cc13)-c1cc3c(c(=O)n1C2)COC(=O)[C@]3(O)CC", "values": [{"measurement": "normalized SmoIP GFP fluorescence", "setting": "[1]", "result": 58.4, "unit": "%"}, {"measurement": "normalized SmoIP GFP fluorescence", "setting": "[2]", "result": 10.9, "unit": "%"}]}
{"compound": "O=C(/C=C\\n1cnc(-c2cc(C(F)(F)F)cc(C(F)(F)F)c2)n1)N1CC(F)(F)C1", "values": [{"measurement": "normalized SmoIP GFP fluorescence", "setting": "[1]", "result": 124, "unit": "%"}, {"measurement": "normalized SmoIP GFP fluorescence", "setting": "[2]", "result": 22.1, "unit": "%"}]}
{"compound": "Cc1cc(Nc2ccc(NC(=O)c3ccc(Nc4ccnc5ccccc45)cc3)cc2)nc(N)n1", "values": [{"measurement": "normalized SmoIP GFP fluorescence", "setting": "[1]", "result": 143, "unit": "%"}, {"measurement": "normalized SmoIP GFP fluorescence", "setting": "[2]", "result": 2.35, "unit": "%"}]}
{"compound": "COc1ccc(C2=N[C@@H](c3ccc(Cl)cc3)[C@@H](c3ccc(Cl)cc3)N2C(=O)N2CCNC(=O)C2)c(OC(C)C)c1", "note": "[Nutlin-3]", "values": [{"measurement": "normalized SmoIP GFP fluorescence", "setting": "[1]", "result": 158, "unit": "%"}, {"measurement": "normalized SmoIP GFP fluorescence", "setting": "[2]", "result": 39.5, "unit": "%"}]}
{"compound": "CCCCCCCCCCCCc1ccc(S(=O)(=O)Nc2nncs2)cc1", "values": [{"measurement": "normalized SmoIP GFP fluorescence", "setting": "[1]", "result": 120, "unit": "%"}, {"measurement": "normalized SmoIP GFP fluorescence", "setting": "[2]", "result": -0.0496, "unit": "%"}]}
